Experimental data taken from PMC4468860.
These are yes or no findings as the source states them, for the method shown. Binding seen in cells or lysates may run through a third protein. Some entries that bind do so weakly or less than the wild type. For part of these data: Tags and fused reporters may be left off the sequences shown.

By UniProt entry, the sequences of proteins in these tests, tags left out. Residues count along the entry.
UniProt Q3UH93, residues 49-1925: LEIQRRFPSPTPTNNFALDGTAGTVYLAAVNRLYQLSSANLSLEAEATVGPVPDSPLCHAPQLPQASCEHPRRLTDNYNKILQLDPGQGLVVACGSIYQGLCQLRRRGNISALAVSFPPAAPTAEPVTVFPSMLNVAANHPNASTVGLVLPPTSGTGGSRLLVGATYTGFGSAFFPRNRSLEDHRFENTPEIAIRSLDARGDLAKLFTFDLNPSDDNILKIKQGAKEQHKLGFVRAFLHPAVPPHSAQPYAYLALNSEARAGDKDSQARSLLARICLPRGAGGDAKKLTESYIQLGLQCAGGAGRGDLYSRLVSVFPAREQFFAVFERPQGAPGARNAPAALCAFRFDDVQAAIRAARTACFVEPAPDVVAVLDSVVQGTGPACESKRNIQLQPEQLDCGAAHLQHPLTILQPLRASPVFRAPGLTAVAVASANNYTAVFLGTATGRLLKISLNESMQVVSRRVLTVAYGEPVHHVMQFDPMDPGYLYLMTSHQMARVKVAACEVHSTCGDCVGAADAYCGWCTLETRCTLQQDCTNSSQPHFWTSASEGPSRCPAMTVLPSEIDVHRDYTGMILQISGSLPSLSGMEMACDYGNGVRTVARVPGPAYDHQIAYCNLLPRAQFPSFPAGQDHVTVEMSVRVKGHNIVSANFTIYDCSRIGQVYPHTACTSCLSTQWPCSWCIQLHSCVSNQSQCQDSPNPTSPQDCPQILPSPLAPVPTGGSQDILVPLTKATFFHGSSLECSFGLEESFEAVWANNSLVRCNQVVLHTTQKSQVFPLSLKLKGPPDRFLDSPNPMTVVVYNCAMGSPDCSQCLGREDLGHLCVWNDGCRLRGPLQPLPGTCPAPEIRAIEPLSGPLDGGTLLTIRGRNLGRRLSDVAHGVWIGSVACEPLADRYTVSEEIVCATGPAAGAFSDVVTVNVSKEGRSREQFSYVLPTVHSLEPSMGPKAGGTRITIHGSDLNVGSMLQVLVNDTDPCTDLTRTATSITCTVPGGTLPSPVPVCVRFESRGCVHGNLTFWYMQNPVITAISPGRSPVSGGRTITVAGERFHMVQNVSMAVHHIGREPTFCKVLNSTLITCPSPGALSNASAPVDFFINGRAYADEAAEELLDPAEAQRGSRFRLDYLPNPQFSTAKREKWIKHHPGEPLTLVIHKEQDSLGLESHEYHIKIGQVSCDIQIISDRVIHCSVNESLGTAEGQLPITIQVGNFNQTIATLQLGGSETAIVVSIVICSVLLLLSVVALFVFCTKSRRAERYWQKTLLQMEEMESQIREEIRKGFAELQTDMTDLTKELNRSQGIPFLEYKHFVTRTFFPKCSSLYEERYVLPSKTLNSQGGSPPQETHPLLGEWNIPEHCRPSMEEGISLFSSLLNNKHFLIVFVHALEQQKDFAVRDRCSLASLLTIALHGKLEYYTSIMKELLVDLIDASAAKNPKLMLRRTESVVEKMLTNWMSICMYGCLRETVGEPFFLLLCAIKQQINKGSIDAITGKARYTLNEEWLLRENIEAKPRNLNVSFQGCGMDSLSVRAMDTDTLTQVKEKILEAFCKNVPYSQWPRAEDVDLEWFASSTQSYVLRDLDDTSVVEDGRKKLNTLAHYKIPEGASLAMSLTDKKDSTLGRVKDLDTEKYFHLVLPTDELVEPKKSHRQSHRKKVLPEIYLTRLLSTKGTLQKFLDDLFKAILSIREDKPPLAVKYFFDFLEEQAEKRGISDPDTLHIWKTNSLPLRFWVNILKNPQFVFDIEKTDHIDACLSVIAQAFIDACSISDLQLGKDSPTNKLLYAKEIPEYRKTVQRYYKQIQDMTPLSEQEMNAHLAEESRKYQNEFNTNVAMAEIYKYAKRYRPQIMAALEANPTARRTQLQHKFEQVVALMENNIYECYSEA
UniProt P35918, residues 20-1345: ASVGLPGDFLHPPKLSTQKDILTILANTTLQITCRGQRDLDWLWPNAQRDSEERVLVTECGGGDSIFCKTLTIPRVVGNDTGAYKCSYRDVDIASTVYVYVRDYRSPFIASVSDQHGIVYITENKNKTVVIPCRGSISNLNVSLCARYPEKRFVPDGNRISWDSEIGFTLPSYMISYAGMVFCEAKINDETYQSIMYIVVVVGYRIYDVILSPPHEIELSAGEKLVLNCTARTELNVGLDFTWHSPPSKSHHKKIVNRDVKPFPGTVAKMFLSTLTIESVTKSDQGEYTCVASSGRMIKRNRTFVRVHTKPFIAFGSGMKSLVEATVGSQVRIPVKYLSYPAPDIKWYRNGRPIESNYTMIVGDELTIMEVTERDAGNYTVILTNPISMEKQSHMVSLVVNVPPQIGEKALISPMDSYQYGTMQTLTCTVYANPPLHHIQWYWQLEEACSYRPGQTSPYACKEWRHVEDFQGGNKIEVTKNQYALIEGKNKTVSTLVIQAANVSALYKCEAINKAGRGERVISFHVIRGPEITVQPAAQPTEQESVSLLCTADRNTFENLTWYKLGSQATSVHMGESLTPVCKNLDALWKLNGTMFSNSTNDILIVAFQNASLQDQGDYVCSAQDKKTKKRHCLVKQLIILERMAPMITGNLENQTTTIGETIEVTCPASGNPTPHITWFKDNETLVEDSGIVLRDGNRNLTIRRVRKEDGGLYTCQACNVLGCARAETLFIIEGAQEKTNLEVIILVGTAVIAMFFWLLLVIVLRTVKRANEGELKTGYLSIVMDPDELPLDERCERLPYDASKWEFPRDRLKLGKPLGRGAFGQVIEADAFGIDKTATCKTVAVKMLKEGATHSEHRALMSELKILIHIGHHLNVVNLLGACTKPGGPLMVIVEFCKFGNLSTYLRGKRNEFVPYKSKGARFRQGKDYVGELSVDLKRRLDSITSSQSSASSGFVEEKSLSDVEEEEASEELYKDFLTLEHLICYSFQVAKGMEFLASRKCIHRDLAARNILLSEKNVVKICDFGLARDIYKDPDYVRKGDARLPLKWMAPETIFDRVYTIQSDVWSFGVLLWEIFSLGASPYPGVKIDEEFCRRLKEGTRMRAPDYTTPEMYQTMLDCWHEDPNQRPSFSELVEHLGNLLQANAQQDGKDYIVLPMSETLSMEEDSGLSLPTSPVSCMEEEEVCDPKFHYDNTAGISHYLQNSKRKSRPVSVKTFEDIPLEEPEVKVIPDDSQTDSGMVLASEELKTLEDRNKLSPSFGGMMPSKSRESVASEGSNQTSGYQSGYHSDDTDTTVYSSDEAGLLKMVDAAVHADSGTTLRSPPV
UniProt Q9Z0R4: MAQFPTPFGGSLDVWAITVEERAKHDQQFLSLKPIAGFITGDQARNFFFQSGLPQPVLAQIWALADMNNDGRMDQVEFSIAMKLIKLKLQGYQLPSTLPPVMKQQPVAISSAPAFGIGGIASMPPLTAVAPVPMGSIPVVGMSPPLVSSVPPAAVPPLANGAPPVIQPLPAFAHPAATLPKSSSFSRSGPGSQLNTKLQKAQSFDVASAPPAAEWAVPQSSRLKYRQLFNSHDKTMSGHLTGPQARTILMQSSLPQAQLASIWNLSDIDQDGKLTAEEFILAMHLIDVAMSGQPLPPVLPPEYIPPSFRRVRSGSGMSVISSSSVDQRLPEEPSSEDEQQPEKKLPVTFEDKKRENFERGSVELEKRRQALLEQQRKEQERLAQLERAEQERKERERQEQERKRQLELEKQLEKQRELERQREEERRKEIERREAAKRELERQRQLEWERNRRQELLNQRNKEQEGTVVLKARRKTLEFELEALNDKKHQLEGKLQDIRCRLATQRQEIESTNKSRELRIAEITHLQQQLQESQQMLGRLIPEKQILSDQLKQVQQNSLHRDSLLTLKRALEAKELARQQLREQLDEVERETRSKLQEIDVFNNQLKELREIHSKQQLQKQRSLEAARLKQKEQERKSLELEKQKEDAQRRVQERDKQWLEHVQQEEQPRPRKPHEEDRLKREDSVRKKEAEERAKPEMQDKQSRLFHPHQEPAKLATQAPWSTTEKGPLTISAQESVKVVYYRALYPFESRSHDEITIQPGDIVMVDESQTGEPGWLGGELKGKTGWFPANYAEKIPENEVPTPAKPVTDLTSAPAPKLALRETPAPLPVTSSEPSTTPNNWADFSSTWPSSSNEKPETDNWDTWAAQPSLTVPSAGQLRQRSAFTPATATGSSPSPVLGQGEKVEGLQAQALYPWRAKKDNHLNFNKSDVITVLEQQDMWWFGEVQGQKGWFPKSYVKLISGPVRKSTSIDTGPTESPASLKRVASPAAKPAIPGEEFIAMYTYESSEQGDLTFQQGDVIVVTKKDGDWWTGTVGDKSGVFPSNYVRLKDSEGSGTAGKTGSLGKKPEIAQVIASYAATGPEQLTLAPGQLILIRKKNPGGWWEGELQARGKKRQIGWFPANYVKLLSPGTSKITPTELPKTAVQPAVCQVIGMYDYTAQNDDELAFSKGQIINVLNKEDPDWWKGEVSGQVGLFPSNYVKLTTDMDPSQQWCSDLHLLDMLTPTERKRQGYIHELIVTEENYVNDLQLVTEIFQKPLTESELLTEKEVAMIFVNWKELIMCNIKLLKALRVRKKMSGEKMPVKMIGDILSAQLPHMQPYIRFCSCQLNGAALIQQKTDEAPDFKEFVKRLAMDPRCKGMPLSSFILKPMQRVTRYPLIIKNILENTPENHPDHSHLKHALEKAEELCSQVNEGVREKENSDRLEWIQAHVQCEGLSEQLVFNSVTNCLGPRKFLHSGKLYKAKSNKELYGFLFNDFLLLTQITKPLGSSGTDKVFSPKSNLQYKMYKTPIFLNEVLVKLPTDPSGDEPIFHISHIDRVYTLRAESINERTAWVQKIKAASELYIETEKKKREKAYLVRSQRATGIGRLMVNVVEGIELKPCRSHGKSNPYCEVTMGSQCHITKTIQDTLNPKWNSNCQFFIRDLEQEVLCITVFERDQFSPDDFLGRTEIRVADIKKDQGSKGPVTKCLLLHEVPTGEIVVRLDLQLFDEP

Columns and labels:
PlexinD1 [1] = biological target: PlexinD1 (UniProt Q3UH93); experiment: co-IP; HEK293T17 cells expressing PlxD1, Nrp1, VEGFR2 and MAP6-E-GFP together; immunoprecipitation with goat anti-PlexinD1 or goat anti-Neuropilin, Dynabeads Protein G, washes up to 500 mM NaCl; western blot
Neuropilin1 [2] = biological target: Neuropilin1 (UniProt P97333); experiment: as above
PlexinD1 [3] = biological target: PlexinD1 (UniProt Q3UH93); experiment: co-IP; HEK293T17 cells expressing PlxD1, Nrp1 or VEGFR2 individually in combination with MAP6-E-GFP; immunoprecipitation of the receptor; western blot
[4] = biological target: vascular endothelial growth factor receptor 2 (UniProt P35918); experiment: as above
Neuropilin1 [5] = biological target: Neuropilin1 (UniProt P97333); experiment: as above
GST-LNt (rat) = biological target: T1, GST-LNt (rat) (UniProt Q63560); experiment: pull-down; GST-LNt on glutathione-sepharose beads incubated with postnatal brain lysate; blots probed with anti-p85 or anti-intersectin; only the target purified
T1 sequence: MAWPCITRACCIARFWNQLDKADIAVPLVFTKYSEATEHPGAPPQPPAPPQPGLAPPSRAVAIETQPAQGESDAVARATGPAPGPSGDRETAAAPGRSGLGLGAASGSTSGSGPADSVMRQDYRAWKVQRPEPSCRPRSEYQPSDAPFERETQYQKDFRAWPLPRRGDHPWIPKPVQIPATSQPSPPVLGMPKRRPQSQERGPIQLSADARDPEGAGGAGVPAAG

binding (PlexinD1 [1]) | binding (Neuropilin1 [2]) | other results | Substance
binds | binds | binding (PlexinD1 [3]): binds; binding [4]: binds; binding (Neuropilin1 [5]): binds | MAP6-E-GFP (from UniProt Q63560 1-614)
– | – | binding (GST-LNt (rat)): binds | intersectin1 isoforms (endogenous) (from UniProt Q9Z0R4 1-1714)
– | binds | – | PlexinD1 (from UniProt Q3UH93 49-1925) (receptor)
binds | – | – | Neuropilin1 (from UniProt P97333 22-923) (receptor)
binds | – | – | vascular endothelial growth factor receptor 2 (from UniProt P35918 20-1345)
